The record followed here is publication PMC12040169 (PLOS Biology, 2025).

Some of the results follow.

The test concerns T1, CTL2-GFP (C. trachomatis L2/434/Bu, GFP-expressing).
T1 construct: L2/434/Bu, GFP-expressing
Further details: species or system HeLa; Intracellular C. trachomatis growth in HeLa cells, bulk GFP fluorescence relative to DMSO. Particulars: bulk GFP, single well; 28.5 h, 10 µM; inhibitor.
Consider `Cc1cc(Cl)cc(Cl)c1S(=O)(=O)Nc1nc(-c2cccc([N+](=O)[O-])c2)cs1` [CBK000902], for which the “% of control remaining” value was 115.852%.
For `C=CCNC(=O)C1CC2CCC1(C)C[C@@]21NC(=O)c2ccccc2N1` (stereo partly drawn) [CBK284442] the value was 119.865%; for `CCOc1cc(NC2CCN(C(=O)CC3(O)CCCCC3)CC2)ncn1` [CBK304141], 112.446%.
On to `O=C(Nc1ccc(I)cc1C(=O)Nc1cccnc1)c1ccccc1Cl` [CBK266154], for which the “% of control remaining” value stood at 102.721%.
In the case of `CC(C)CN1C(=O)COC[C@@H]1[C@H](O)c1ccc(NC(=O)c2cccnc2)cc1` [CBK289692], the “% of control remaining” value is listed as 121.638%.
For the compound `CN(C)CCN(CC#Cc1ccccc1)CC#Cc1ccccc1` [CBK265035C], the “% of control remaining” value amounted to 130.899%.
To `CN1C(=O)C2(CC(=O)N(CC3CCCCC3)C2=O)c2cc(F)ccc21` (stereo not drawn) [CBK075257] belongs 104.403%.
To `COc1cccc(CC(=O)N2CCC(Cc3ccc(-c4ccccc4)cc3)(C(N)=O)CC2)c1` [CBK285776] belongs 118.942%; to `COc1ccccc1NC(=O)N(CC(C)C)CC(C)C` [CBK005456], 106.685%; to `O=C1CCC(=O)N1CCOc1nccnc1N1CCN(Cc2ccccc2F)CC1` [CBK084289], 116.875%.
Take `C=CCOc1cccn2c(N(C=O)Cc3ccccc3)c(CC)nc12` [CBK147827]: the “% of control remaining” value is 100.716%.
For `CC(C)(C)c1cc(/C=N/Nc2nc3ccccc3[nH]2)cc(C(C)(C)C)c1O` [CBK262247] the value was 66.6906%.
For the compound `Cc1cccc(C2CCCN(C(=O)Nc3cnn(C)c3)C2)c1` (stereo not drawn) [CBK306961], the “% of control remaining” value came to 105.255%.
For the compound `CCn1ncc(CN2CCCC(c3cc4cccnc4[nH]3)C2)c1C` (stereo not drawn) [CBK284700], the “% of control remaining” value is given as 122.229%.
`CN1CCC(=NNC(=O)c2ccc(CN(c3ccccc3)S(C)(=O)=O)cc2)CC1` [CBK262728]: the “% of control remaining” value is 104.945%.
Take `Cc1ccc(NC(=O)c2ccc3c(c2)C(=O)N(c2cccc(N4C(=O)c5ccc(C(=O)Nc6ccc(C)cc6)cc5C4=O)n2)C3=O)cc1` [CBK261198]: the “% of control remaining” value is on record as 99.2507%.
In the case of `CN1CC[C@@]2(c3cc(F)cc(F)c3)CCC(=O)CC12` (stereo partly drawn) [CBK002500], the “% of control remaining” value was found to be 88.1776%.
To `Cc1c(NS(=O)(=O)c2cc(C(=O)O)c(Cl)cc2Cl)c(=O)n(-c2ccccc2)n1C` [CBK296123] belongs 141.391%; to `COCOc1ccc(-c2nc(-c3cccc(NS(C)(=O)=O)c3)cnc2N)cc1` [CBK063985], 87.161%.
Take `c1ccc(CCN2CCC(Oc3nccnc3OCCN3CCOCC3)CC2)nc1` [CBK082944]: the “% of control remaining” value stood at 113.316%.
For the compound `CC(C)(C)c1nnc([C@H]2CCN(C(=O)CCC(=O)O)C2)o1` [CBK289406], the “% of control remaining” value was 115.499%.
To `N#CCCCN1CCN(c2nccnc2OCc2cccnc2)CC1` [CBK083144] belongs 89.2887%; to `Nc1c(-c2ccc3c(c2)CCO3)cnc2ncccc12` [CBK083678], 119.846%.
To `COc1ccc2c(c1)C(O)CC1(CCN(CC(O)c3ccc(-c4ccccc4)cc3)CC1)O2` (stereo not drawn) [CBK286398] belongs 170.41%.
To `Cc1ccccc1-n1ncc2c(N3CCCC3)ncnc21` [CBK287648] belongs 92.1441%; to `CN(C)CC(C)(C)CNC(=O)c1cc(-c2ccc(C(=O)N3CCOCC3)cc2)cnc1N` [CBK158574], 100%; to `O=[N+]([O-])c1ccc(Oc2ccccc2)nc1` [CBK002726], 136.712%.
As for `Cc1ccc2nc(NC(=O)C3COc4ccccc4O3)sc2c1` (stereo not drawn) [CBK287366], the “% of control remaining” value stood at 109.561%.
For `COc1ccc(N(C(C)C(=O)NN=C2CCN(C)CC2)S(C)(=O)=O)cc1` (stereo not drawn) [CBK262390] the value was 100%.
For `CCCCNC(=O)c1ccc2nc(C)c(N(C)CC3CCCCC3)n2c1` [CBK145913] the value was 85.4518%; for `O=C1COc2ccccc2CCCC[C@@H]2CNCC[C@H]2N1` [CBK292038], 126.462%; for `NS(=O)(=O)c1ccc(CCNC(=O)c2ccc([N+](=O)[O-])cc2)cc1` [CBK263773], 98.1436%.
For `O=C(Cn1cnc2ccccc2c1=O)NCCc1ccsc1` [CBK287844] the value was 125.419%; for `c1ccc(-c2c(-c3ccccc3)n(Cc3ccco3)c3ncn4nc(-c5cccnc5)nc4c23)cc1` [CBK265374], 112.917%.
Consider `COc1ccc(CCNC(=O)c2cnc(-c3ccc(Cl)cc3)c(-c3cccc(CNC(C)=O)c3)c2)cc1OC` [CBK164413], for which the “% of control remaining” value was found to be 110.105%.
To `O=C(O)C1CCCN1S(=O)(=O)c1ccc(Cl)cc1` (stereo not drawn) [CBK261249] belongs 100%; to `Cc1c(C(=O)O)ccc2c1N[C@@H](c1ccc(OCC#N)cc1)C1CC=CC21` (stereo partly drawn) [CBK287124], 132.973%; to `CCOc1ccc2nc(NC(=N)N)nc(C)c2c1` [CBK010384C], 19.5285%.
For `Cc1nc(C)c(CC(=O)N(C)CC2OCCc3ccccc32)s1` (stereo not drawn) [CBK281478] the value was 115.79%.
Consider `O=C(CSc1nnnn1CC1CCCO1)N1CC=C(c2ccccc2)CC1` (stereo not drawn) [CBK295160], for which the “% of control remaining” value stood at 146.157%.
For `O=C(O)C1(Cc2ccc(-c3ccccc3)cc2)CCNC1` (stereo not drawn) [CBK281687] the value was 118.434%.
To `CCC(NC(=O)CCN1Cc2ccccc2C1=O)c1ccc(F)cc1` (stereo not drawn) [CBK282657] belongs 90.3959%; to `O=C(CC1SC(N2CCOCC2)=NC1=O)Nc1cccc(C(=O)O)c1` (stereo not drawn) [CBK300498], 120.309%.
To `Cc1ccc(NC(=O)CC(C(=O)O)N(C)C)cc1` (stereo not drawn) [CBK267068] belongs 166.341%; to `COc1cc2c(cc1CN1CCOCC1CC(=O)O)CCC2` (stereo not drawn) [CBK307277], 110.502%.
As to `CC(=O)Nc1nc(C)c(S(=O)(=O)Nc2nc(C(C)C)ns2)s1` [CBK051227], the “% of control remaining” value came to 108.801%.
To `COc1cc(C2C3=C(COC3=O)Nc3[nH]nc(C)c32)ccc1O` (stereo not drawn) [CBK288146] belongs 104.109%; to `O=C(O)c1cc(S(=O)(=O)NCc2ccco2)ccc1Cl` [CBK058905], 150.343%.
As for `CC(=O)Nc1ccc(NC(=O)CC2SCCNC2=O)cc1` (stereo not drawn) [CBK269921], the “% of control remaining” value is on record as 117.761%.
To `O=C(NCCN1CCC(O)(c2cccc(F)c2)CC1)c1cccs1` [CBK282450] belongs 78.2829%; to `O=S(=O)(NCCSc1nnnn1-c1ccccc1)c1cccs1` [CBK268013], 87.3566%; to `CCN(CC(=O)N1CCN(c2cc(Cl)ccc2C)CC1)S(=O)(=O)c1ccc2ccccc2c1` [CBK268827], 135.396%.
For `C[C@@H]1CN(C(=O)OCc2ncc(F)cc2F)C[C@H](C)O1` [CBK200286] the value was 60.1402%; for `COc1cc(C)c(S(=O)(=O)Nc2ccc(CC(=O)O)cc2)cc1C` [CBK299782], 136.326%.
To `COCCCn1c(=O)[nH]c2ncc(-c3cc(C(C)C)ccc3OC)nc21` [CBK064351] belongs 159.308%; to `Cc1cccc(OCC(=O)Nc2ncn(Cc3cccnc3)n2)c1` [CBK304919], 83.2914%.
`Cc1noc(C)c1S(=O)(=O)Nc1ccc2cc(Br)cnc2n1` [CBK073893]: the “% of control remaining” value came out at 102.271%.
For `Cc1ccc(C(=O)NNC(=O)c2ccc([N+](=O)[O-])cc2)cc1` [CBK261793] the value was 99.5641%; for `Cc1ccc(C(=O)N2CCn3c2nc2ccccc23)cc1` [CBK288204], 133.268%.
For `COc1ccc(C2=NNC(c3ccc(C(=O)O)cc3)C2)cc1` (stereo not drawn) [CBK287167], the “% of control remaining” value is given as 144.764%.
For `O=c1n(CC2CCCCC2)c2ccccc2n1S(=O)(=O)CCc1cccc2ccccc12` [CBK106525] the value was 111.395%.
Consider `Nc1ncc(CCCN2CCOCC2)c(N)n1` [CBK025981], for which the “% of control remaining” value worked out at 117.819%.
To `CC(C)c1ccc(/C=C/C(=O)N2CCN(C3CCN(C)CC3)CC2)cc1` [CBK149094] belongs 96.9297%; to `COC(=O)c1c(NC(=S)NCCn2cc(Br)cn2)sc2c1CCC(C)C2` (stereo not drawn) [CBK266886], 154.105%.
To `COc1ccc(NC(=O)C2CCCN2c2nc(O)cc(C(F)(F)F)n2)cc1` (stereo not drawn) [CBK003704] belongs 100%; to `CN(C)CCNC(=O)c1cccc(-c2cnc3[nH]c(=O)n(Cc4ccc(S(C)(=O)=O)cc4)c3n2)c1` [CBK065069], 147.45%; to `N#CC1=C(N)N2C(=C(C#N)C13CCN(Cc1ccccc1)CC3)Nc1ccccc12` [CBK267241], 94.9467%.
For `CC(C)NC(=O)C1(Cc2ccc(-c3ccccc3)cc2)CCN(C(=O)C2CCC2)CC1` [CBK285750] the value was 103.325%.
On to `CSCCN1CCN(c2nccnc2Oc2ccc(F)cc2)CC1` [CBK083028T], for which the “% of control remaining” value was 99.2267%.
For `COc1cc2c(cc1NC(=O)C(C)Oc1ccccc1)oc1ccccc12` (stereo not drawn) [CBK264061] the value was 93.2162%.
For `c1ccc(NCCOc2cncc(N3CCCC3)n2)cc1` [CBK115670] the value was 110.521%; for `CCOC(=O)c1cnc2c(Cl)cc(Cl)cc2c1NCCN1CCOCC1` [CBK307278], 157.601%.
For `CCN(CC)c1c(C)nc2ccc(C(=O)N3CCN(C)CC3)cn12` [CBK145955] the value was 100%.
On to `c1cn2c(-c3ccoc3)cnc(N3CCOCC3)c2n1` [CBK091292], for which the “% of control remaining” value was 143.82%.
With `CC(C)C(=O)Nc1cc2ccccc2c(-c2cc(F)cc(F)c2)n1` [CBK085775], the “% of control remaining” value came to 111.666%.
For `COCCn1c(SCc2cc(=O)oc3cc(C)ccc23)nnc1-c1ccc(Cl)cc1` [CBK297517], the “% of control remaining” value came to 137.306%.
For `OCCN(Cc1cccnc1)Cc1cccn1-c1ccc(F)cc1` [CBK283023] the value was 92.9022%; for `O=C(NCC1c2ccccc2CCN1C(=O)CN1C(=O)c2ccccc2C1=O)C1CCCCC1` (stereo not drawn) [CBK262582], 111.193%.
